Experiment: general procedure: Fmoc solid-phase peptide synthesis; Chlorotrityl resin; HBTU/DIEA
Conditions: conjugation step, sequence written open

MMAE-PAB-(Cit-Val)-BCY3900
final purity (method not given) (bicyclic): 96.5% | conjugation yield (on BCY3900, bicyclic): 73.4%
